Measurements reported in PubChem BioAssay AID328 (DTP/NCI, 2004).
The list does not hold the whole screen: it gathers tests that were run many times, whatever their T/C, doses with no T/C, and many T/C values between a quarter and a half above the control. Other doses and runs of a compound stand elsewhere. T/C is the treated group as % of the vehicle group. Some entries give survivors of the animals treated and no T/C: the source files T/C as zero there, which appears to mark a toxic dose or a test without result, not a measured value. Some survivor counts are full or nearly so, which does not show that the dose was tolerated: survival well below the control is almost never listed, so the zero probably covers shortened survival too. Counts of survivors are from the toxicity check (mostly the fifth day) where no day follows; animals may have died later. Schedule codes are those of the source, taken here to give the interval after Q, in days (D) or hours (H), and the number of doses after X. Where survival is the endpoint, this PubChem deposit counts one and a half times the control or more as active, and values a quarter to a half above the control carry no call in these data; other NCI protocols may use other cut-offs. Some T/C values carry the count of animals alive at the toxicity check (mostly the fifth day); where none is given, no animal had died by that day.

Tested on: BDF1 mice, P388 leukemia ip, median survival T/C
Assay: NCI In Vivo Anticancer Drug Screen. Data for tumor model P388 Leukemia (intraperitoneal) in B6D2F1 (BDF1) mice
Conditions: T/C endpoint: median survival time, higher T/C = longer survival
How it was run: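 Antitumour effect was judged in vivo: survival in drug-treated mice, normalised to that of vehicle-dosed controls, gives the reported T/C.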

[1] = dose: 50.0 mg/kg/injection, schedule: Q01DX009 (ip), vehicle: saline with Tween-80
[2] = dose: 100.0 mg/kg/injection, schedule: Q01DX009 (ip), vehicle: saline with Tween-80
[3] = dose: 200.0 mg/kg/injection, schedule: Q01DX009 (ip), vehicle: saline with Tween-80
[4] = dose: 400.0 mg/kg/injection, schedule: Q01DX009 (ip), vehicle: saline with Tween-80
[5] = dose: 400.0 mg/kg/injection, schedule: Q04DX003 (ip), vehicle: saline with Tween-80
[6] = dose: 400.0 mg/kg/injection, schedule: Q04DX003 (ip), vehicle: Klucel (hydroxypropylcellulose) (HPC)
[7] = dose: 50.0 mg/kg/injection, schedule: Q01DX009 (ip), vehicle: Klucel (hydroxypropylcellulose) (HPC)
[8] = dose: 100.0 mg/kg/injection, schedule: Q01DX009 (ip), vehicle: Klucel (hydroxypropylcellulose) (HPC)

For N/C(=N\[N+](=O)[O-])N(CCCCl)N=O, the T/C (dose: 18.0 mg/kg/injection, schedule: Q01DX009 (ip), vehicle: Klucel (hydroxypropylcellulose) (HPC)) was 128 % of control [9 of 10 alive], the T/C (dose: 37.5 mg/kg/injection, schedule: Q01DX009 (ip), vehicle: other) was 127 % of control and the T/C [1] was 149 % of control. The T/C (dose: 75.0 mg/kg/injection, schedule: Q01DX009 (ip), vehicle: other) was 127 % of control, the T/C (dose: 75.0 mg/kg/injection, schedule: Q01DX009 (ip), vehicle: saline with Tween-80) was 126 % of control and the survivor count [2] was 4 of 6. The survivor count (dose: 150.0 mg/kg/injection, schedule: Q01DX009 (ip), vehicle: other) was 2 of 6, the survivor count [3] was 3 of 6 and the survivor count (dose: 264.0 mg/kg/injection, schedule: Q04DX003 (ip), vehicle: saline sonified) was 6 of 6. The survivor count [4] was 0 of 6, the survivor count (dose: 400.0 mg/kg/injection, schedule: Q04DX003 (ip), vehicle: saline sonified) was 5 of 6 and the T/C [5] was 131 % of control.
In the case of c1ccc2c3nc(nc2c1)CCCCCCCN3, the survivor count [6] is reported as 2 of 6.
For C[P+](C)(c1ccccc1)c1ccccc1, the survivor count (dose: 25.0 mg/kg/injection, schedule: Q04DX003 (ip), vehicle: saline with Tween-80) was 5 of 6.
CCCCCCCC(=O)[O][Hg][CH2]C1COC([CH2][Hg][O]C(=O)CCCCCCC)CO1 (stereo not given) was tested, and the T/C (dose: 25.0 mg/kg/injection, schedule: Q01DX009 (ip), vehicle: saline sonified) was 125 % of control [5 of 6 alive], the T/C (dose: 25.0 mg/kg/injection, schedule: Q04DX003 (ip), vehicle: saline sonified) was 137 % of control and the survivor count (dose: 50.0 mg/kg/injection, schedule: Q01DX009 (ip), vehicle: saline sonified) was 6 of 6. The survivor count (dose: 100.0 mg/kg/injection, schedule: Q04DX003 (ip), vehicle: saline sonified) was 0 of 6.
With COc1ccc(CC2C(=O)NC(C)C(=O)N(C)C3C(=O)N(C)C(Cc4ccc(O)c(c4)Oc4ccc(cc4)C3O)C(=O)NC(C)C(=O)NC(C)C(=O)N2C)cc1 (stereo not given) the T/C (dose: 0.04 mg/kg/injection, schedule: Q01DX009 (ip), vehicle: saline) was 134 % of control, the T/C (dose: 0.07 mg/kg/injection, schedule: Q01DX009 (ip), vehicle: saline) was 139 % of control and the T/C (dose: 0.25 mg/kg/injection, schedule: Q01DX009 (ip), vehicle: distilled water + Tween-80) was 142 % of control. The T/C (dose: 0.5 mg/kg/injection, schedule: Q01DX009 (ip), vehicle: distilled water + Tween-80) was 149 % of control, the T/C (dose: 2.0 mg/kg/injection, schedule: Q01DX009 (ip), vehicle: distilled water + Tween-80) was 149 % of control and the survivor count (dose: 4.0 mg/kg/injection, schedule: Q01DX009 (ip), vehicle: distilled water + Tween-80) was 5 of 6. The survivor count (dose: 4.32 mg/kg/injection, schedule: Q04DX003 (ip), vehicle: other) was 4 of 8, the survivor count (dose: 7.2 mg/kg/injection, schedule: Q04DX003 (ip), vehicle: other) was 1 of 8 and the survivor count (dose: 12.0 mg/kg/injection, schedule: Q04DX003 (ip), vehicle: other) was 0 of 8. The survivor count (dose: 20.0 mg/kg/injection, schedule: Q04DX003 (ip), vehicle: other) was 0 of 8, the T/C (dose: 20.0 micrograms/kg/injection, schedule: Q01DX009 (ip), vehicle: alcohol) was 144 % of control and the T/C (dose: 40.0 micrograms/kg/injection, schedule: Q01DX009 (ip), vehicle: alcohol) was 126 % of control. For the same compound, the T/C (dose: 4000.0 micrograms/kg/injection, schedule: Q04DX003 (ip), vehicle: other) was 136 % of control [6 of 8 alive].
With CCCCNc1ccc(Nc2ccccc2)cc1 the T/C (dose: 25.0 mg/kg/injection, schedule: Q01DX009 (ip), vehicle: saline + alcohol) was 133 % of control [5 of 6 alive], the survivor count (dose: 50.0 mg/kg/injection, schedule: Q01DX009 (ip), vehicle: saline + alcohol) was 3 of 6 and the survivor count (dose: 100.0 mg/kg/injection, schedule: Q01DX009 (ip), vehicle: saline + alcohol) was 0 of 6.
For C=C/C=C\N(CC)CC, the survivor count (dose: 3.12 mg/kg/injection, schedule: Q01DX009 (ip), vehicle: water) was 4 of 6 and the survivor count (dose: 12.5 mg/kg/injection, schedule: Q01DX009 (ip), vehicle: water) was 6 of 6.
For CCOC(=O)N(C)C(C)Cc1ccccc1 (stereo not given), the T/C [3] was 125 % of control.
CCOC(=O)NP(=O)(N1CC1)N1CC1 was tested, and the T/C (dose: 4.8 mg/kg/injection, schedule: Q04DX003 (ip), vehicle: saline) was 130 % of control, the T/C (dose: 7.2 mg/kg/injection, schedule: Q04DX003 (ip), vehicle: saline) was 135 % of control and the T/C (dose: 16.0 mg/kg/injection, schedule: Q04DX003 (ip), vehicle: saline) was 140 % of control. For the same compound, the survivor count (dose: 100.0 mg/kg/injection, schedule: Q04DX003 (ip), vehicle: saline) was 4 of 6.
With Nc1ccn(C2OC(COP(=O)(O)O)C(O)C2O)c(=O)n1 (stereo not given) the T/C (dose: 14.0 mg/kg/injection, schedule: Q04DX003 (ip), vehicle: saline) was 140 % of control and the survivor count [4] was 5 of 6.
With O=c1oc2ccccc2cc1-c1csc(/C=N/N2CCOCC2)n1 the survivor count [3] was 5 of 6.
For Nc1nc(=S)c2[nH]c(N=Nc3ccc(S(=O)(=O)Nc4ccccn4)cc3)nc2[nH]1, the survivor count [7] was 6 of 6, the survivor count [8] was 6 of 6 and the survivor count (dose: 200.0 mg/kg/injection, schedule: Q01DX009 (ip), vehicle: Klucel (hydroxypropylcellulose) (HPC)) was 6 of 6.
With Oc1c(Cl)c(Cl)c(Cl)c(Cl)c1Cl (tested in a mixture with another compound) the T/C [1] was 127 % of control and the survivor count [2] was 4 of 6.
O=C(CCBr)N1CCN(C(=O)CCBr)CC1 was tested, and the survivor count (dose: 80.0 mg/kg/injection, schedule: Q01DX010 (ip), vehicle: saline) was 6 of 6.
In the case of Cc1ccc(C)c2c1CCC2C (stereo not given), the survivor count [4] is reported as 2 of 6.
With COC1=CC(=O)C(Cl)=C(OC)C1=O the survivor count (dose: 6.25 mg/kg/injection, schedule: Q01DX009 (ip), vehicle: saline with Tween-80) was 5 of 6 and the survivor count (dose: 12.5 mg/kg/injection, schedule: Q01DX009 (ip), vehicle: saline with Tween-80) was 0 of 6.
For O=C1C(Cl)=C(Cl)C(=O)c2ccccc21, the survivor count [7] was 6 of 6.
With Nc1ccc(C(=O)Nc2ccc(Nc3ccncc3)cc2)c([N+](=O)[O-])c1 the T/C (dose: 50.0 mg/kg/injection, schedule: Q01DX009 (ip), vehicle: saline) was 130 % of control.
In the case of CCCCCC1(O)C2CCCC1CCC2 (stereo not given), the T/C (dose: 200.0 mg/kg/injection, schedule: Q01DX001 (ip), vehicle: saline sonified) is reported as 130 % of control.
For CCOC(=O)c1c[nH]c(=S)n1C, the survivor count (dose: 400.0 mg/kg/injection, schedule: Q01DX009 (ip), vehicle: Klucel (hydroxypropylcellulose) (HPC)) was 1 of 6 and the survivor count [6] was 5 of 6.
For COc1cc(C=Nc2cc(Cl)c(Cl)c(Cl)c2)ccc1N(CCCl)CCCl, the survivor count [7] was 6 of 6, the survivor count [8] was 6 of 6 and the survivor count (dose: 150.0 mg/kg/injection, schedule: Q04DX003 (ip), vehicle: Klucel (hydroxypropylcellulose) (HPC)) was 6 of 6. The survivor count (dose: 200.0 mg/kg/injection, schedule: Q04DX003 (ip), vehicle: Klucel (hydroxypropylcellulose) (HPC)) was 6 of 6 and the survivor count [6] was 5 of 6.
NCCc1cnc2ccccc2n1 was tested, and the T/C (dose: 25.0 mg/kg/injection, schedule: Q01DX009 (ip), vehicle: saline) was 130 % of control and the T/C (dose: 100.0 mg/kg/injection, schedule: Q01DX009 (ip), vehicle: saline) was 125 % of control [5 of 6 alive].
For O=C1C=CC(=Nc2ccc3c(c2)C(Br)c2ccccc2-3)O1 (stereo not given), the survivor count (dose: 100.0 mg/kg/injection, schedule: Q04DX003 (ip), vehicle: saline with Tween-80) was 0 of 6, the survivor count (dose: 200.0 mg/kg/injection, schedule: Q04DX003 (ip), vehicle: saline with Tween-80) was 2 of 6 and the survivor count (dose: 215.0 mg/kg/injection, schedule: Q04DX003 (ip), vehicle: saline) was 0 of 6. The survivor count [5] was 0 of 6.
CCCCCC1=NC(C)(C(=O)OC)OO1 (stereo not given) was tested, and the survivor count [2] was 6 of 6.
